Binding data for three molecules are collected here from paper doi:10.1101/2021.03.20.435662.

These are yes or no findings as the source states them, for the method shown. Some binding calls cover weakened binding; strength is not graded here. Sequences can lack the tags named with a protein.

Experiment in all cases: two-hybrid
The target of assay [1] is T1, CROWDED NUCLEI 3 (CRWN3), yeast two-hybrid fusion (Arabidopsis thaliana) (UniProt Q9CA42).
T1 sequence: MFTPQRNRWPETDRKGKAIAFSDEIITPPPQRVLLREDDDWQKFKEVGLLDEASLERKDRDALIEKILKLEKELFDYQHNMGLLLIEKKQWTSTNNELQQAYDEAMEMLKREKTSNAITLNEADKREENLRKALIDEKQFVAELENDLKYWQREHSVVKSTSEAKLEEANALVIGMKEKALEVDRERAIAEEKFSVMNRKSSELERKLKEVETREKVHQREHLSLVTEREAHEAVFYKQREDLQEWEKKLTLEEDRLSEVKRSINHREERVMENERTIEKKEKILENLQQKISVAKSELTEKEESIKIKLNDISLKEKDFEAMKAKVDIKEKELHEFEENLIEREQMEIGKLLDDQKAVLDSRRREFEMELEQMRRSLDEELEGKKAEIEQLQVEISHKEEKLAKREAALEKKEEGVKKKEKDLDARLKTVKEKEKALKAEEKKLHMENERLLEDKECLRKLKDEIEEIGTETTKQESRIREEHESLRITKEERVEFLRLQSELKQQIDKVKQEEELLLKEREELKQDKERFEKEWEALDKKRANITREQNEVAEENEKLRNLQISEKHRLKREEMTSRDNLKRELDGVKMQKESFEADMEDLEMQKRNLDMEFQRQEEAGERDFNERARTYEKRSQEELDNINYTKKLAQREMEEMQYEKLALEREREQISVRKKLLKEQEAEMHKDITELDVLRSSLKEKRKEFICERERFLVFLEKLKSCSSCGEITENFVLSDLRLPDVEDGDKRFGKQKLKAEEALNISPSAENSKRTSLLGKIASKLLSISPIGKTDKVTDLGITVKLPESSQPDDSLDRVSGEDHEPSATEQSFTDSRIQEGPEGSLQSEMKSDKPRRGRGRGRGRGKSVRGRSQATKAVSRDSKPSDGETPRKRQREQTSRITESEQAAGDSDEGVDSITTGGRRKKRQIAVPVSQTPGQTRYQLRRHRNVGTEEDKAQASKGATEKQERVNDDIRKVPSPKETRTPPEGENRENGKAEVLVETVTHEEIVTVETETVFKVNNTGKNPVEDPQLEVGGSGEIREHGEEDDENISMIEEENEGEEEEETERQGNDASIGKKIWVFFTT

The target of assay [2] is T2, CROWDED NUCLEI 1 (CRWN1), yeast two-hybrid fusion (Arabidopsis thaliana) (UniProt F4HRT5).
T2 sequence: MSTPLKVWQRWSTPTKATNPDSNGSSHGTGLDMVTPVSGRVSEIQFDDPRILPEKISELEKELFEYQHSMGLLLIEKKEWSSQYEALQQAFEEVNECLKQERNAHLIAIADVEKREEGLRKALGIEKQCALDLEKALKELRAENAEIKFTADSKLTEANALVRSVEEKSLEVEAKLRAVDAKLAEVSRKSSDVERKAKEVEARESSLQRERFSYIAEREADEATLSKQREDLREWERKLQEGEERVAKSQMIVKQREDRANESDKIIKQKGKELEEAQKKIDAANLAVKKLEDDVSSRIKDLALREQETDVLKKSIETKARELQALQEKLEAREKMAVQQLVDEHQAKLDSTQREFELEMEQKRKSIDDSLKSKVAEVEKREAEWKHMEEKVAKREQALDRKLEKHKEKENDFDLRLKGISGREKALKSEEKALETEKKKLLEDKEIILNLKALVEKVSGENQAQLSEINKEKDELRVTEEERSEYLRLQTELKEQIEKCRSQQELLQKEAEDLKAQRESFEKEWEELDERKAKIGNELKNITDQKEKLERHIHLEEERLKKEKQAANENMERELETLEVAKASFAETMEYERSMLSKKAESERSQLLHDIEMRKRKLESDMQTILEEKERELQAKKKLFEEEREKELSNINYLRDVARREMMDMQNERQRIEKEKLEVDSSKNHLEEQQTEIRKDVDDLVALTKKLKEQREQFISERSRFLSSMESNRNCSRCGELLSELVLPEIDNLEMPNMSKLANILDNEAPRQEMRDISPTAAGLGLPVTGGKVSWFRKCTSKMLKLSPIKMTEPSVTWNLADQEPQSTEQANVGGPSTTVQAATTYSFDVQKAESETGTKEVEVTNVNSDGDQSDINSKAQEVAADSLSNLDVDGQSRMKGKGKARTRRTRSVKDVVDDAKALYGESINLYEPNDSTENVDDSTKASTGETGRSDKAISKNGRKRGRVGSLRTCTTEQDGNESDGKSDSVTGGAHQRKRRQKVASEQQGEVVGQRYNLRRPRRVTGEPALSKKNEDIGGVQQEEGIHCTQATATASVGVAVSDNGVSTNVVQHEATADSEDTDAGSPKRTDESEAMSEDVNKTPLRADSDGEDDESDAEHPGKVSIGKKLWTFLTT

The target of assay [3] is T3, KAKU4 N-terminus (1-310), yeast two-hybrid fusion (Arabidopsis thaliana) (UniProt Q949W6).
T3 sequence: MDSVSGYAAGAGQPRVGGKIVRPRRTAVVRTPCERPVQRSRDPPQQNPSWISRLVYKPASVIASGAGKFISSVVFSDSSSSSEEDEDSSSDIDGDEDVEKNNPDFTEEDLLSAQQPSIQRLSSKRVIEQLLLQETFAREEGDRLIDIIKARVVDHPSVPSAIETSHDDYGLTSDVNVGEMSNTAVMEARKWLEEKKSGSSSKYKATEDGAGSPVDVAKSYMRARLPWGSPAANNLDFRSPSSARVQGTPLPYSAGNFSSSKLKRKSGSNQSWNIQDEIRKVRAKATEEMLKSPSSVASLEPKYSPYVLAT

B1: KAKU4 C-terminus (311-574), yeast two-hybrid fusion (domain or fragment, UniProt Q949W6-2 311-574)
chain: DMLKGNASSLNADGAVRNEQSRALPNSAIPTSEHNQTTEANQAVKETGVLHTRSRGVGLEETFISTQGVKPSEDTNTAPQSGTAVDDFNDQDGDFIQPTSTIGNTTNAVLALGATLDPTGNSCIPKDVFETSKEADEIGASRHTSNGFPSSSPSSPAVMEGQPKPTPPEETKASQPIAEIHGDDMTVGNGSDGAINNESNDSHSSASNSSSTHEEEWLPGDQSLPNSNSASSSPGNTKVLAYSRRGRGRGRGRGRGGRGKGRAK
For the molecule B1, the binding entry in assay [1] and in assay [2] was “no binding” throughout.

B2: KAKU4 N-terminus (1-310), yeast two-hybrid fusion (domain or fragment, UniProt Q949W6-2 1-310)
chain: T3 sequence
B2: the binding entry in assay [3], in assay [1] and in assay [2] was “binds” in each case.

B3: KAKU4 full-length protein (amino-acids 1-574), yeast two-hybrid fusion (protein, UniProt Q949W6-2 1-574)
chain: MDSVSGYAAGAGQPRVGGKIVRPRRTAVVRTPCERPVQRSRDPPQQNPSWISRLVYKPASVIASGAGKFISSVVFSDSSSSSEEDEDSSSDIDGDEDVEKNNPDFTEEDLLSAQQPSIQRLSSKRVIEQLLLQETFAREEGDRLIDIIKARVVDHPSVPSAIETSHDDYGLTSDVNVGEMSNTAVMEARKWLEEKKSGSSSKYKATEDGAGSPVDVAKSYMRARLPWGSPAANNLDFRSPSSARVQGTPLPYSAGNFSSSKLKRKSGSNQSWNIQDEIRKVRAKATEEMLKSPSSVASLEPKYSPYVLATDMLKGNASSLNADGAVRNEQSRALPNSAIPTSEHNQTTEANQAVKETGVLHTRSRGVGLEETFISTQGVKPSEDTNTAPQSGTAVDDFNDQDGDFIQPTSTIGNTTNAVLALGATLDPTGNSCIPKDVFETSKEADEIGASRHTSNGFPSSSPSSPAVMEGQPKPTPPEETKASQPIAEIHGDDMTVGNGSDGAINNESNDSHSSASNSSSTHEEEWLPGDQSLPNSNSASSSPGNTKVLAYSRRGRGRGRGRGRGGRGKGRAK
For B3, the binding entry in assay [1] and in assay [2] was “binds” throughout.
